From patent KR20230168598A
No constants are given. Whether binding was seen depends on the method and setting. Some results given as binding are weak or reduced against the parent protein; the word gives no strength. Values belong to the binder of their own block, whether it stands above or below them.

Columns and labels:
[1] = target: T1, 인간 TIGIT 발현 CHO-K1 세포 (CHO-K1 TIGIT, Genscript M00542)의 인간 TIGIT (human) (UniProt Q495A1); test: flow cytometry on CHO-K1 cells expressing human TIGIT
T1 sequence: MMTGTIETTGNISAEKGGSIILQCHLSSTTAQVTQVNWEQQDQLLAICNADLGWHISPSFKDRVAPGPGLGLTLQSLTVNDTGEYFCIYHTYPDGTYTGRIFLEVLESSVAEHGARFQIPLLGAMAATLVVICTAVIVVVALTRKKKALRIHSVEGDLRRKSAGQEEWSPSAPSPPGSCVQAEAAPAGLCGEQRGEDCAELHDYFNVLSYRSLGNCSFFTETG

[2] = target: 재조합 원숭이 TIGIT 단백질 (recombinant cynomolgus TIGIT; acrobiosystems, China) (cynomolgus monkey); test: ELISA, coated recombinant cynomolgus TIGIT
[3] = target: 원숭이(cynomolgus monkey) TIGIT-발현 Jurkat 세포 (Creative Biogene)의 TIGIT (cynomolgus monkey); test: flow cytometry, AF488-labelled antibody on Jurkat cells expressing cynomolgus TIGIT; reference Tiragolumab
[4] = target: 원숭이(cynomolgus monkey) TIGIT-발현 Jurkat 세포 (Creative Biogene)의 TIGIT (cynomolgus monkey); test: flow cytometry on Jurkat cells expressing cynomolgus TIGIT

- binding [1]: binds
- binding [2]: binds
B1: 마우스 항-TIGIT 단클론 항체 2B7 (mouse backbone mIgG1) (antibody, V domains shown)
VH: EVQLQQSGPELVKPGASVKISCKTSGSTFTEYTMHWVKQSHGKSLEWIGGLNPNNGGTSYNQRFKDRATLTVDKSSSTAYMELRSLTSEDSAVYYCTRGTYYDYSFAYWGQGTLVTVSA
VL: DIVMTQSHKFMSTSVGDRVSITCKASHYVSTAVAWYQQKPGQSPKLLIYSPSYRYTGVPDRFTGSGSGTDFTFTISSVQAEDLAVYYCHQHYSTPWTFGGGTKLEIK

- binding [3]: binds
- binding [4]: binds
B2: 마우스-인간 키메라 항-TIGIT 단클론 항체 2B7 (인간 IgG1/kappa) (antibody, V domains shown)
VH: B1 VH
VL: DIVMTQSHKFMSTSVGDRVSITCKASHYVSTAVAWYQQKPGQSPKLLIYSPSYRYTGVPDRFTGSGSGTDFTFTISSVQAEDLAVYYCHQHYSTPWTFGGGTKLEIKR

- binding [1]: binds
- binding [2]: binds
B3: 마우스 항-TIGIT 단클론 항체 3F8 (mouse backbone mIgG1) (antibody, V domains shown)
VH: EVQLQQSGPELVKPGASMKISCKASGYSFTDYIMNWVKQSHGKNLEWIGLSIPYNGGTSYNQKFEGKATLTVDKSSSTAYMELLSLTSEDSAVYYCARGIKGYFAMDYWGQGTSVTVSS
VL: DVVVTQTPLSLPVSFGDQVSISCRSSQSLVNSFGKTYLSWFLHKPGQSPQLIMYGVSNRFSGVPDRFSGSGSGTDFTLKISTIKPEDLGMYYCLQGTHQPWTFGGGTKLEIK

- binding [3]: binds
- binding [4]: binds
B4: 마우스-인간 키메라 항-TIGIT 단클론 항체 3F8 (인간 IgG1/kappa) (antibody, V domains shown)
VH: B3 VH
VL: DVVVTQTPLSLPVSFGDQVSISCRSSQSLVNSFGKTYLSWFLHKPGQSPQLIMYGVSNRFSGVPDRFSGSGSGTDFTLKISTIKPEDLGMYYCLQGTHQPWTFGGGTKLEIKR
